The source of these data is PubChem BioAssay AID328 (DTP/NCI, 2004).

The list is a part of this screen's results and no random one: it is rich in T/C values a quarter to a half above the control, in often repeated tests (any T/C) and in doses without a T/C. Other doses and runs of a compound stand elsewhere. T/C: endpoint of the treated group in % of that of the vehicle group. Some doses have a count of surviving animals in place of a T/C: the source holds a T/C of zero for them, seemingly a mark for toxic or unscored doses. Some doses without a T/C left all or most animals alive at the check, yet need not have been tolerated: the source hardly ever lists a survival T/C far under the control, and the zero likely stands for such cases as well. Survivors were counted at the toxicity check, usually on the fifth day, unless a day is given; later deaths do not show. Schedules are NCI's codes, taken here to give the interval after Q, in days (D) or hours (H), and the number of doses after X. Some structures stand for samples that the source files as different forms (salt, stereo form or complex); doses refer to the form tested. Marks such as (2×) stand for listed records that agree. Where survival is the endpoint, the PubChem record calls one and a half times the control and up active, and a quarter to a half above the control has no call in these data; cut-offs in other NCI protocols can differ. Some T/C values are followed by the survivors on the day toxicity was checked, most often the fifth; where none is given, no animal had died by that day. Some entries hold several experiments; their values stand side by side, smallest first.

This assay deals with BDF1 mice, P388 leukemia ip, median survival T/C. The experiment in a line: NCI In Vivo Anticancer Drug Screen. Data for tumor model P388 Leukemia (intraperitoneal) in B6D2F1 (BDF1) mice. The settings on record: T/C endpoint: median survival time, higher T/C = longer survival. An outline of the steps:
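In tumour-bearing mice, survival after compound treatment is set against the vehicle group and given as a quotient.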

The mark [1] stands for this setting: dose: 200.0 mg/kg/injection, schedule: Q04DX003 (ip), vehicle: saline with Tween-80.
The mark [2] stands for this setting: dose: 25.0 mg/kg/injection, schedule: Q01DX009 (ip), vehicle: saline.

As to `Nc1ncn(C2OC(CO)C(O)C2O)c(=O)n1` (stereo unspecified), the T/C (dose: 0.93 mg/kg/injection, schedule: Q04DX003 (ip), vehicle: saline) is 137 % of control; the T/C (dose: 1.25 mg/kg/injection, schedule: Q04DX003 (ip), vehicle: saline, evaluated on day 5) is 122 % of control; the T/C (dose: 1.25 mg/kg/injection, schedule: Q04DX003 (ip), vehicle: saline, evaluated on day 8) was 97 [4 of 6 alive], 110, 120 % of control; the T/C (dose: 1.3 mg/kg/injection, schedule: Q04DX003 (ip), vehicle: saline) was 145 % of control; the T/C (dose: 2.12 mg/kg/injection, schedule: Q04DX003 (ip), vehicle: saline) is 136 % of control; the T/C (dose: 2.5 mg/kg/injection, schedule: Q04DX003 (ip), vehicle: saline, evaluated on day 5) is 150 % of control. Moreover, the T/C (dose: 2.5 mg/kg/injection, schedule: Q04DX003 (ip), vehicle: saline, evaluated on day 8) was 91 [4 of 6 alive], 97 [6 of 7 alive], 142 % of control; the T/C (dose: 5.0 mg/kg/injection, schedule: Q04DX003 (ip), vehicle: saline, evaluated on day 5) is 176 % of control; the T/C (dose: 5.0 mg/kg/injection, schedule: Q04DX003 (ip), vehicle: saline, evaluated on day 8) was 100, 100 [6 of 7 alive], 145 % of control; the T/C (dose: 8.0 mg/kg/injection, schedule: Q01DX005 (ip), vehicle: saline) was 125 % of control; the T/C (dose: 8.5 mg/kg/injection, schedule: Q04DX003 (ip), vehicle: saline) is 127 % of control; the T/C (dose: 10.0 mg/kg/injection, schedule: Q04DX003 (ip), vehicle: saline, evaluated on day 5) was 254 % of control. The T/C by setting is: (dose: 10.0 mg/kg/injection, schedule: Q04DX003 (ip), vehicle: saline, evaluated on day 8) 167, 201, 227 % of control; (dose: 18.0 mg/kg/injection, schedule: Q04DX003 (ip), vehicle: saline) 149 % of control; (dose: 20.0 mg/kg/injection, schedule: Q04DX003 (ip), vehicle: saline, evaluated on day 5) 203 % of control; (dose: 20.0 mg/kg/injection, schedule: Q04DX003 (ip), vehicle: saline, evaluated on day 8) 125, 158, 163 % of control; (dose: 20.0 mg/kg/injection, schedule: Q04DX004 (ip), vehicle: saline) 138 % of control; (dose: 24.0 mg/kg/injection, schedule: Q04DX004 (ip), vehicle: saline) 136 % of control. The T/C reads like this: (dose: 28.0 mg/kg/injection, schedule: Q04DX003 (ip), vehicle: saline) 145 % of control; (dose: 33.0 mg/kg/injection, schedule: Q01DX001 (ip), vehicle: saline) 148 % of control; (dose: 40.0 mg/kg/injection, schedule: Q04DX003 (ip), vehicle: saline, evaluated on day 5) 79 % of control; (dose: 40.0 mg/kg/injection, schedule: Q04DX003 (ip), vehicle: saline, evaluated on day 8) 104, 109, 121 % of control; (dose: 50.0 mg/kg/injection, schedule: Q01DX001 (ip), vehicle: saline, evaluated on day 5) 138, 184, 185 % of control; (dose: 50.0 mg/kg/injection, schedule: Q01DX001 (ip), vehicle: saline, evaluated on day 60) 184 % of control. The T/C by setting is: (dose: 75.0 mg/kg/injection, schedule: Q01DX001 (ip), vehicle: saline, evaluated on day 5) 160, 169, 185 % of control; (dose: 75.0 mg/kg/injection, schedule: Q01DX001 (ip), vehicle: saline, evaluated on day 60) 185 % of control; (dose: 100.0 mg/kg/injection, schedule: Q01DX001 (ip), vehicle: saline, evaluated on day 5) 155, 175, 184 % of control; (dose: 100.0 mg/kg/injection, schedule: Q01DX001 (ip), vehicle: saline, evaluated on day 60) 184 % of control; (dose: 125.0 mg/kg/injection, schedule: Q01DX001 (ip), vehicle: saline, evaluated on day 5) 123, 185, 191 % of control; (dose: 125.0 mg/kg/injection, schedule: Q01DX001 (ip), vehicle: saline, evaluated on day 60) 185 % of control [9 of 10 alive]. Besides, where the note is “dose: 150.0 mg/kg/injection, schedule: Q01DX001 (ip), vehicle: saline”, the T/C was 129 % of control. Moreover, the survivor count runs as follows: (dose: 13.0 mg/kg/injection, schedule: Q01DX009 (ip), vehicle: saline) 6 of 6; (dose: 16.0 mg/kg/injection, schedule: Q01DX005 (ip), vehicle: saline) 6 of 6; (dose: 19.0 mg/kg/injection, schedule: Q01DX009 (ip), vehicle: saline) 6 of 6; (dose: 30.0 mg/kg/injection, schedule: Q04DX003 (ip), vehicle: saline) 8 of 8; (dose: 32.0 mg/kg/injection, schedule: Q01DX005 (ip), vehicle: saline) 0 of 6; (dose: 165.0 mg/kg/injection, schedule: Q01DX001 (ip), vehicle: saline) 3 of 10.

As for `COc1ccc(/C(C#N)=C2C=C/C(=N\O)C(C)=C/2Cl)cc1`, the survivor count runs as follows: (dose: 100.0 mg/kg/injection, schedule: Q04DX003 (ip), vehicle: saline with Tween-80) 6 of 6; under setting [1], 6 of 6; (dose: 400.0 mg/kg/injection, schedule: Q04DX003 (ip), vehicle: saline with Tween-80) 6 of 6.

In the case of `O=C1c2ccccc2C(=O)c2c(NCCNCCO)ccc(NCCNCCO)c21`, the survivor count was 6 of 6 (dose: 16.0 mg/kg/injection, schedule: Q01DX009 (ip), vehicle: water); 5 of 6 (dose: 32.0 mg/kg/injection, schedule: Q01DX009 (ip), vehicle: water); 10 of 10 (2×) (dose: 50.0 mg/kg/injection, schedule: Q01DX009 (ip), vehicle: saline); 5 of 6 (dose: 64.0 mg/kg/injection, schedule: Q01DX009 (ip), vehicle: water); 5 of 6 (dose: 128.0 mg/kg/injection, schedule: Q04DX003 (ip), vehicle: saline with Tween-80). Moreover, the T/C under setting [2] is 126 % of control.

On to `[CH3][Sn]([CH3])([CH3])[O]C(=O)CCl`, for which the survivor count (dose: 3.0 mg/kg/injection, schedule: Q01DX009 (ip), vehicle: saline) is reported as 0 of 6.

With `COc1ccc(C)cc1NN`, the survivor count by setting is: under setting [2], 6 of 6; (dose: 100.0 mg/kg/injection, schedule: Q01DX009 (ip), vehicle: saline) 0 of 6; (dose: 200.0 mg/kg/injection, schedule: Q01DX009 (ip), vehicle: saline) 0 of 6.

In the case of `COc1ccc(/C=C2\CCCC3=C2N=C2SCC(=O)N2C3c2ccc(OC)cc2)cc1` (stereo unspecified), the survivor count under setting [1] is reported as 6 of 6.
